# According to PubChem BioAssay AID2685 (National Center for Advancing Translational Sciences (NCATS), 2010):
# The other results are listed elsewhere or left out. Further columns of the screen follow, without active or inactive calls. Compounds called inactive in the main read-out are mostly missing here. Words in brackets tell the shape of the fitted curve; partial curves, single points and poor fits give uncertain potencies.
# Experiment: qHTS Assay for Lipid Storage Modulators in Drosophila S3 Cells;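 as to cell number change: cells counted by Cell Tracker Red CMTPX staining in the red channel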
# Details: BODIPY lipid droplet fluorescence, 18-24 h; for cell number change: measured here: cell count max response, cells fed with added oleic acid
# How it was run: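 Laser-scanning cytometry quantifies lipid droplet accumulation (500–530 nm total intensity; droplet/cell object ratio) in oleic acid-fed (400 uM added) Drosophila S3 cells treated with a concentration series. 20 uM Triacsin C defined 100% inhibition.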
# [1] = measured here: cell number channel AC50, cells fed with added oleic acid
# [2] = measured here: lipid fluorescence (Fed channel) AC50, cells fed with added oleic acid
Compound,cell number change [%],AC50 [1],AC50 [2]
O=C(OCCOc1cccc(Cl)c1)c1cc(S(=O)(=O)N2CCCCC2)ccc1N1CCOCC1,25.4,"4.61 µM [rising, single point]",
O=C(Cc1cc(=O)[nH][nH]1)N/N=C/c1cccc(Cl)c1Cl,-28.5,,"1.16 µM [falling, full curve]"
COc1ccccc1-c1cc(C(=O)Nc2ccc(F)cc2F)no1,-13.5,,"1.84 µM [falling, partial curve]"
C=CC[n+]1c(-c2ccccc2)csc1NC(C)(C)C,45.8,"16.4 µM [rising, single point]","23.1 µM [rising, single point]"
Cc1cc(C)cc(NCc2ccncc2)c1,-10.1,,
O=C(NCc1ccccc1Cl)C1CCN(c2cnccn2)CC1,-9.13,,"4.61 µM [falling, single point]"
COc1ccc(/C(N)=N/OC(=O)CCc2ccccc2)cc1,23.5,,"0.82 µM [rising, single point]"
CCn1c2ccccc2c2cc(/C=N/n3cnnc3)ccc21,-23,"7.31 µM [falling, partial curve, poor fit]",
CCOc1ccccc1NC(=O)Cn1c(=O)n(-c2ccccc2)c(=O)c2oc3ccccc3c21,-3.85,"6.51 µM [rising, single point]","6.51 µM [rising, single point]"
C/C(=C\C(=O)C(F)(F)F)Nc1ccc(C)cc1,-3.47,,
CC(OC(=O)c1cccc(NS(C)(=O)=O)c1)C(=O)Nc1ccc(N2CCOCC2)cc1 (stereo not drawn),,,"0.731 µM [falling, full curve]"
CCN(CC)c1ccc([C@H]2[C@@H]3CCCC[C@]3(O)CCN2CC(=O)NCc2ccco2)cc1,14.6,,"13 µM [rising, partial curve]"
Fc1cccc(C2NN=C(c3ccccc3)S2)c1 (stereo not drawn),-16.7,,"0.259 µM [rising, full curve, poor fit]"
Cc1cc(C)nc(NC(=O)c2c(-c3c(Cl)cccc3Cl)noc2C)n1,86.7,"11.6 µM [rising, partial curve]","1.84 µM [rising, partial curve]"
CCOc1ccccc1N1CCN(C(=O)c2cccc(-c3ccc(O)cc3)c2)CC1,-6.57,,"0.731 µM [falling, single point]"
COCCNC(=S)NCc1ccc2[nH]c3c(c2c1)CCCC3,-26.9,,"23.1 µM [falling, partial curve, poor fit]"
Cc1ccc(SCCN2CCN(CCc3ccccc3)CCC2=O)cc1,20,,"7.31 µM [rising, partial curve]"
O=C(O)CCCCCn1c(SCc2cc(=O)n3cc(Cl)ccc3n2)nc2ccsc2c1=O,33.7,"11.6 µM [rising, partial curve]","10.3 µM [rising, partial curve]"
COc1cccc(NC(=O)C(c2ccccc2)N2CCCC2)c1 (stereo not drawn),,,"2.06 µM [falling, partial curve]"
CN(C)C(=O)CNC(=O)C1CCCCC1,-17.1,,"0.517 µM [falling, full curve, poor fit]"

# Part of the list above, bar-delimited:
Compound | cell number change [%] | AC50 [1] | AC50 [2]
O=C(Cc1cc(=O)[nH][nH]1)N/N=C/c1cccc(Cl)c1Cl | -28.5 |  | 1.16 µM [falling, full curve]
COc1ccccc1-c1cc(C(=O)Nc2ccc(F)cc2F)no1 | -13.5 |  | 1.84 µM [falling, partial curve]

# More records

Compound,cell number change [%],AC50 [1],AC50 [2]
O=C1/C(=C/c2cccnc2)N=C2CCCCCN12,,"5.17 µM [rising, single point]","6.51 µM [rising, single point]"
CCc1cc(C(=O)Nc2cc(Cl)ccc2N2CCN(C)CC2)sc1C,50.5,"4.61 µM [rising, full curve]",
CC[C@@H](C)[C@H](NC(=O)OC(C)(C)C)c1nnc(S(=O)(=O)Cc2cc(C)ccc2C)o1,-82.2,"29.1 µM [falling, single point]","25.9 µM [falling, partial curve]"
CCC(=O)NCCc1nc2ccccc2n1Cc1ccc(C)cc1,16.3,,"6.51 µM [rising, single point]"
Nc1c(-c2cccc(Cl)c2)cnn1-c1ccccc1,2.01,,"0.0058 µM [falling, full curve, poor fit]"
COC(=O)CSc1nnc(C)n1-c1cccc(OC)c1,-25.4,,"0.103 µM [falling, full curve, poor fit]"
CC(C)N(Cc1nc(-c2ccc3c(c2)OCO3)no1)Cc1nccn1C,11.4,,"0.0259 µM [rising, full curve, poor fit]"
O=C(NCCOC(=O)c1ccccc1C(=O)OCCNC(=O)c1cccnc1)c1cccnc1,37.1,"7.31 µM [rising, partial curve, poor fit]",
CCC(=O)N1CCc2cc(S(=O)(=O)CCC(=O)NCc3ccc(C)cc3)ccc21,22.7,,
Cc1ccc(NC(=O)CN2C(=O)COc3ccc(S(=O)(=O)N4CCCC4)cc32)cc1C,0.943,,"6.51 µM [rising, single point]"
NC(=O)c1cccc(CC(=O)c2ccccc2)c1,-35.1,"1.16 µM [falling, full curve, poor fit]","9.2 µM [falling, partial curve]"
CCc1nc2oc3ccccc3c(=O)c2c(=O)n1-c1ccccc1,5.83,,"0.731 µM [rising, single point]"
COc1cc(C2C=C(c3cccs3)Nc3ncnn32)cc(OC)c1OC (stereo not drawn),-65,"29.1 µM [falling, single point]",
CC(C)=C(NC(=O)c1ccccc1Br)C(=O)NCCc1nc2ccccc2[nH]1,33.2,"18.4 µM [rising, single point]",
COC(=O)[C@@]1(Cc2ccc(F)cc2)[C@H]2c3cc(C(=O)N(C)C)n(Cc4ccccc4)c3C[C@H]2CN1C(=O)c1ccccc1,-47.9,"2.59 µM [falling, full curve]","8.2 µM [falling, partial curve]"
COc1ccc(C(=O)OC(C)C(=O)NC(C)CCc2ccccc2)cc1OC (stereo not drawn),-8.03,,
CCN(CC(=O)NCc1cccs1)C(=O)c1ccc(S(=O)(=O)Nc2ccccc2Cl)cc1,1.5,"0.651 µM [falling, single point]","0.461 µM [falling, single point]"
COc1ccc(S(=O)(=O)N(C)CC(=O)N2CCCC2)cc1OC,-13.5,,
O=C(c1ccccc1)N1CCN(c2ccc([N+](=O)[O-])cc2-n2cccc2)CC1,56.2,"2.06 µM [rising, partial curve]","16.4 µM [rising, single point]"
COc1ccc2c(c1)[C@H]1[C@H](CO2)[C@H](c2ccccc2)[C@]2(C)C(=O)Nc3cc(Cl)ccc3C(=O)N12,19.2,,"20.6 µM [rising, partial curve]"

Compound,cell number change [%],AC50 [1],AC50 [2]
CCCCn1nc(C(=O)OCC(=O)Nc2sccc2C(N)=O)c2ccccc2c1=O,-12.9,,"18.4 µM [rising, single point]"
O=C(NCc1ccccc1CN1CCCC1)C1CCN(S(=O)(=O)c2ccc(Cl)cc2)CC1,-30.3,"16.4 µM [falling, partial curve, poor fit]",
Cc1ccc2nc3sc(C(=O)NCc4ccco4)c(N)c3cc2c1,-65.8,"14.6 µM [falling, partial curve]","16.4 µM [falling, partial curve]"
Cc1cc(-c2ccc(S(=O)(=O)N3CCN(c4cccc(C)c4C)CC3)s2)on1,5.81,,
O=C1CCN2C=Nc3cccc4ccc1c2c34,10.4,,
Nc1ccccc1NC1=CC(=O)CC(c2ccco2)C1 (stereo not drawn),0.802,,"6.51 µM [rising, partial curve]"
Cc1cnc(NC(=O)c2ccc3ncsc3c2)s1,2,,
CC(CNC(=O)c1ccc(Br)o1)NC(=O)c1ccc(Br)o1 (stereo not drawn),36.3,"29.1 µM [rising, single point]","5.8 µM [rising, full curve, poor fit]"
CC1(C)CCC(=O)C=C1Nc1ccc(F)c(Cl)c1,-16.1,,"0.092 µM [rising, full curve, poor fit]"
Cc1ccc(CSCC(=O)Nc2ccc(N3CCOCC3)cc2N2CCOCC2)cc1,-17.9,,
COc1ccc(CCNC(=O)CCN2C(=O)C(C)Oc3ccc(C)cc32)cc1OC (stereo not drawn),-6.54,"6.51 µM [rising, partial curve, poor fit]","0.103 µM [rising, full curve, poor fit]"
CC(C)CNS(=O)(=O)c1ccc(CCC(=O)NCCc2ccccc2)cc1,-23,,"0.651 µM [falling, partial curve]"
COC(=O)C1=CN(c2cc(C)cc(C)c2)C=C(C(=O)OC)C1c1cccc(F)c1,33.3,"7.94 µM [rising, partial curve]","11.2 µM [rising, partial curve, poor fit]"
O=C(NC1CC1)c1ccc(-n2cccc2)cc1,18.9,,
Cc1cccc(NC(=O)c2nc[nH]c2C(=O)NCCCCCCNC(=O)c2[nH]cnc2C(=O)Nc2cccc(C)c2)c1,19.3,,"0.0731 µM [rising, partial curve, poor fit]"
COc1ccc(N2CC(C(=O)OCC(=O)Nc3cc(C)on3)CC2=O)cc1 (stereo not drawn),16.7,"6.51 µM [rising, single point]","20.6 µM [falling, single point]"
Nc1nc(SCC(=O)NCCN2CCOCC2)nc2sc3c(c12)CCC3,-13.8,,
CCCc1cc(=O)oc2cc(C)cc(OCC(=O)NCCCN3CCCC3=O)c12,16.4,,
Cn1cnnc1SCC(=O)c1ccc2c(c1)NC(=O)CO2,-10.8,,"10.3 µM [falling, single point]"
